In article PMC12148038, “Enhancement of CEP215 dynamics for spindle pole assembly during mitosis” (Journal of Cell Science, 2025):
Results are given in words; binding and its absence hold for the method and conditions named. In cells and extracts the contact can be indirect. Some results given as binding are weak or reduced against the parent protein; the word gives no strength. For some assays here: Where a sequence is shown, tags or fusion partners need not be part of it.

The chains behind the UniProt entries cited, without tags or fusion partners.
UniProt Q8TEP8: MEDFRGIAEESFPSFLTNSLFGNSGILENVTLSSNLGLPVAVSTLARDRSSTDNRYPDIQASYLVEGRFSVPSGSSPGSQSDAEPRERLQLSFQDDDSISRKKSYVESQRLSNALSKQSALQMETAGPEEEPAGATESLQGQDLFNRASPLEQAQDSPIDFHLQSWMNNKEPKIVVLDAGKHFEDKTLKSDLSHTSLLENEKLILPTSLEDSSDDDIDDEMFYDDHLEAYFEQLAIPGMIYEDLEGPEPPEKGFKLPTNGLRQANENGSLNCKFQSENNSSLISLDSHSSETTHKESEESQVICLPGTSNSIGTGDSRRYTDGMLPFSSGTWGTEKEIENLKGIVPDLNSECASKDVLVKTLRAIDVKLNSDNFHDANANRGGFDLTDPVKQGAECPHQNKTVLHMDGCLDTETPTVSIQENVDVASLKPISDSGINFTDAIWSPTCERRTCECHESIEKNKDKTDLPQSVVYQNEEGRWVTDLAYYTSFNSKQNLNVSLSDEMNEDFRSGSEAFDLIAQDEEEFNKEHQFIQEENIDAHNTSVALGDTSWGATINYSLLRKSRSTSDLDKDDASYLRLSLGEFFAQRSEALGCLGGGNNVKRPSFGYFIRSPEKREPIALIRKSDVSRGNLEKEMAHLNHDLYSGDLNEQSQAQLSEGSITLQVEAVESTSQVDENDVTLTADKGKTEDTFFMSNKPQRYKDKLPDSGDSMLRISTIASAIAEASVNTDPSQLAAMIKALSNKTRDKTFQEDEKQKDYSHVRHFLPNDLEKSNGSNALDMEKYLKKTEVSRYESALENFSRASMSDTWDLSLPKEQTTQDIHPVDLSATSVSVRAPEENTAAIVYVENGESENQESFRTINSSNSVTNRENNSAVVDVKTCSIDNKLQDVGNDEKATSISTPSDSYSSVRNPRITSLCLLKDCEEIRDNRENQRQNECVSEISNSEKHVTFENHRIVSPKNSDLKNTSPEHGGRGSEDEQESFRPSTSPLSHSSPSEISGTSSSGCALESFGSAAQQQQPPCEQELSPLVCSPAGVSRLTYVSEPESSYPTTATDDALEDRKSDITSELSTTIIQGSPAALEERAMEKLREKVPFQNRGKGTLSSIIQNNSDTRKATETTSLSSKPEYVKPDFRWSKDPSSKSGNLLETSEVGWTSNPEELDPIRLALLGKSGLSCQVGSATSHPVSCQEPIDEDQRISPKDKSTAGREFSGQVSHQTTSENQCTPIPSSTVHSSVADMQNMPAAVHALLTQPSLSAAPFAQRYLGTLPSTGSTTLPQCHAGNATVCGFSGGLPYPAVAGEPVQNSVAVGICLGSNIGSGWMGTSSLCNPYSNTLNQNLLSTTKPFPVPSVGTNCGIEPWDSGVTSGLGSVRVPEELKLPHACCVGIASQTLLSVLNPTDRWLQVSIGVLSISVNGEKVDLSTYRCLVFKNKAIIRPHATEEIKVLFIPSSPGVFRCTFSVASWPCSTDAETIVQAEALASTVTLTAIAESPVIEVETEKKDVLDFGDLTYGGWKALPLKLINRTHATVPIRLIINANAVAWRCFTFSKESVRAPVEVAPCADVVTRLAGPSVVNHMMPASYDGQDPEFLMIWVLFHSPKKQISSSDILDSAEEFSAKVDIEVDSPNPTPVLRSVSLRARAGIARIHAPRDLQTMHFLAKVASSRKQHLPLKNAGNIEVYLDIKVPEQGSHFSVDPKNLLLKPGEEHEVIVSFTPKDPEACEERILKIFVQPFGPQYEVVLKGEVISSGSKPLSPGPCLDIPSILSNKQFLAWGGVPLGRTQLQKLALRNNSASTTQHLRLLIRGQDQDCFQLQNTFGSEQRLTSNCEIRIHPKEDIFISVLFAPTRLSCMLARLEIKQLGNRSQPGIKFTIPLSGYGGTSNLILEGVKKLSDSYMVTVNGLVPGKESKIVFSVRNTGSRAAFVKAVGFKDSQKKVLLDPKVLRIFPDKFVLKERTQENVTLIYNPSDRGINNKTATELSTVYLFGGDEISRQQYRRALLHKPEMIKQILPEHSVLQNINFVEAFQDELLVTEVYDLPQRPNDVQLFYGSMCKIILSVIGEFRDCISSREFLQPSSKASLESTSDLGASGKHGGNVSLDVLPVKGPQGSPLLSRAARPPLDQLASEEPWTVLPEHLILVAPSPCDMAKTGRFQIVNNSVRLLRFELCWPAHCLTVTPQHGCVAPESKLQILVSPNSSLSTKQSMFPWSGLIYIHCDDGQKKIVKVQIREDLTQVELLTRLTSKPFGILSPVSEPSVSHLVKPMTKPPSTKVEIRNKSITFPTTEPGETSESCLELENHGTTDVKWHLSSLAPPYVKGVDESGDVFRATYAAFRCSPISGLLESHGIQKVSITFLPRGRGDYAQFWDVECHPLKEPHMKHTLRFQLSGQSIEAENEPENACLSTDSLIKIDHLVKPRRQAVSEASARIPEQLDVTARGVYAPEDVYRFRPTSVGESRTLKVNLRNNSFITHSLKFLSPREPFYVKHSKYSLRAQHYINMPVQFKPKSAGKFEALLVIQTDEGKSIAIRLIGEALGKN

T1: FLAG–CEP215^1661-1893 (human) (UniProt Q96SN8)
T1 sequence: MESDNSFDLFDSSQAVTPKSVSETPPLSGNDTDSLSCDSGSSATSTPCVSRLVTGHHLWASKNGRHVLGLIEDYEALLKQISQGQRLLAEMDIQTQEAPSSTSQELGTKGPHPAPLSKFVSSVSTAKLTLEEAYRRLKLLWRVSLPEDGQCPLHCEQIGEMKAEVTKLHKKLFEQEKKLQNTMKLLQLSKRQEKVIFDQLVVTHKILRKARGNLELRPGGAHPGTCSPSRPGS


Tests used:
[1] = target: FLAG–CEP215 ΔBS1 (human) (UniProt Q96SN8); assay: co-IP; FLAG-tagged CEP215 construct transfected in 293T, anti-FLAG antibody on protein-A-Sepharose, lysis buffer 50 mM Tris-HCl pH 8.0, 5 mM EDTA, 150 mM NaCl, 0.5% Triton X-100, 4°C; blot for the endogenous partner
[2] = target: T1, FLAG–CEP215^1661-1893 (human); assay: co-IP; FLAG- and HA-tagged CEP215 fragments transiently expressed in 293T, anti-FLAG immunoprecipitation, blot with FLAG and HA antibodies

| binding [1] | binding [2] | Molecule |
| --- | --- | --- |
| no binding |  | endogenous CEP192 (from UniProt Q8TEP8 1-2537) |
|  | binds | MBP–CEP215^1661-1893 (domain or fragment, human, UniProt Q96SN8 1661-1893, looked up, Homodimer by SEC-MALS; calculated monomer mass with MBP 71.8 kDa; also called CEP215 fragment; source: bacterially expressed (pPROEX vector), purified (amylose column, SEC)) MESDNSFDLFDSSQAVTPKSVSETPPLSGNDTDSLSCDSGSSATSTPCVSRLVTGHHLWASKNGRHVLGLIEDYEALLKQISQGQRLLAEMDIQTQEAPSSTSQELGTKGPHPAPLSKFVSSVSTAKLTLEEAYRRLKLLWRVSLPEDGQCPLHCEQIGEMKAEVTKLHKKLFEQEKKLQNTMKLLQLSKRQEKVIFDQLVVTHKILRKARGNLELRPGGAHPGTCSPSRPGS |
